Data on 42 compounds can be found in PubChem BioAssay AID2685 (National Center for Advancing Translational Sciences (NCATS), 2010).

Some of the results follow. The main result of the screen is listed elsewhere. These columns were measured beside it and carry no call. The list favours compounds with an active or inconclusive main result. Words in brackets tell the shape of the fitted curve; partial curves, single points and poor fits give uncertain potencies.

This assay is described as follows: qHTS Assay for Lipid Storage Modulators in Drosophila S3 Cells.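 On cell number change: cells counted by Cell Tracker Red CMTPX staining in the red channel.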 To be noted: BODIPY lipid droplet fluorescence, 18-24 h; for cell number change: measured here: cell count max response, cells fed with added oleic acid. In short, it runs like this: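 Drosophila S3 cells got compounds at several concentrations plus oleic acid (400 uM solution). Laser-scanning cytometry with 488 nm excitation read lipid droplets at 500-530 nm and cells at 575-640 nm. Percent activity was relative to 20 uM Triacsin C.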
For orientation: In qHTS, concentration-response curves come from the screen itself.

The mark [1] stands for this setting: measured here: cell number channel AC50, cells fed with added oleic acid.
The mark [2] stands for this setting: measured here: lipid fluorescence (Fed channel) AC50, cells fed with added oleic acid.

`COc1ccc2cc(-c3ccsc3)ncc2c1`: the cell number change is -26.8%. Besides, the AC50 under setting [1] is 0.092 µM [falling, full curve, poor fit]. The AC50 under setting [2] is 0.651 µM [falling, partial curve].

On to `N=C(N)c1ccc(N)cc1`, for which the cell number change was -8.49%. The concentration at half-maximal activity (AC50) under setting [1] is 0.164 µM [falling, full curve, poor fit].

Take `CC(CC(=O)NCc1ccccc1)C1CCCO1` (stereo not given): the cell number change came out at 5.06%. Besides, the half-maximal activity concentration (AC50) under setting [2] is 0.82 µM [falling, full curve, poor fit].

As for `Cc1c(C(N)=O)sc(N)c1C(=O)OC(C)C`, the cell number change was 2.48%. In addition, the AC50 under setting [1] was 0.517 µM [falling, single point].

Turning to `Cc1ccc(C(=O)CSc2nc(C(C)C)nc3ccccc23)cc1`, the cell number change came out at 36.4%. Moreover, the AC50 under setting [1] is 4.11 µM [rising, partial curve, poor fit]. Moreover, the AC50 under setting [2] is 0.259 µM [rising, full curve, poor fit].

Take `CCN(CCCNC(=O)CCNC(=O)Cn1ccc2ccccc2c1=O)c1ccccc1`: the AC50 under setting [2] is 5.17 µM [falling, partial curve, poor fit].

On to `COc1cccc(-c2cn(C[C@H]3CC[C@@H]([C@@H]4CC[C@H](Cn5cc(-c6cccc(OC)c6)nn5)O4)O3)nn2)c1`, for which the cell number change was -0.971%.

Turning to `C1=C(c2ccco2)N2CCN=C2S1`, the cell number change was -6.57%. Also, the AC50 under setting [2] was 0.13 µM [falling, full curve, poor fit].

Regarding `CCOc1ccc(OCC(=O)N(CCC2=CCCCC2)c2c(N)n(Cc3ccccc3)c(=O)[nH]c2=O)cc1`, the cell number change was -39.7%. The AC50 under setting [1] was 0.651 µM [falling, partial curve, poor fit]. In addition, the AC50 under setting [2] was 9.2 µM [falling, partial curve].

Consider `O=C(CN1CCN(c2cccc(Cl)c2)CC1)N1CCCC1`, for which the cell number change was 4.06%. Further, the AC50 under setting [2] is 0.00731 µM [falling, full curve, poor fit].

Turning to `CCC(CC)C1C(C#N)=C(N)Oc2n[nH]c(C)c21` (stereo not given), the AC50 under setting [2] was 0.206 µM [falling, full curve, poor fit].

For the compound `CC(C)n1ncc2c(C(=O)Nc3cccc(S(=O)(=O)N(C)C)c3)cc(C3CC3)nc21`, the cell number change is -7.52%. Besides, under setting [2], the AC50 is 2.06 µM [falling, partial curve].

`COc1cc(NC(=O)c2ccc3c(c2)OCCO3)ccc1NC(=O)c1ccccc1Cl`: the cell number change amounted to 14.1%. For the same compound, under setting [2], the AC50 is 16.4 µM [rising, single point].

Turning to `COc1cc(/C=C/C(=O)OCC(=O)N2CC(=O)Nc3ccccc32)ccc1O`, the cell number change came to 21.4%. Under setting [2], the concentration at half-maximal activity (AC50) is 4.61 µM [rising, full curve].

As to `Cc1ccc(OCCC(=O)OCC(=O)NC2CCS(=O)(=O)C2)cc1` (stereo not given), the cell number change was -20.5%.

As to `COc1ccc(N2CC(NS(=O)(=O)c3cccnc3)CC2=O)cc1` (stereo not given), the AC50 under setting [2] is 4.61 µM [rising, full curve].

With `O=C(Nc1ccc2c(c1)OCO2)C1CC(c2ccc(Cl)cc2)=NO1` (stereo not given), the cell number change was -18.8%.

Consider `CC(=O)Nc1ccc(NC(=O)CSc2ncnc3sc(C)c(C)c23)cc1`, for which the AC50 under setting [2] is 22.4 µM [falling, single point].

Turning to `O=C(NNC(=O)c1sccc1-n1cccc1)Nc1ccc(F)cc1`, the cell number change is -11.8%.

Take `CC1Cc2ccccc2N1S(=O)(=O)c1ccc2c(c1)n(C)c(=O)c(=O)n2C` (stereo not given): the cell number change amounted to 103%. Further, the AC50 under setting [1] is 9.2 µM [rising, partial curve]. Further, the AC50 under setting [2] is 5.8 µM [rising, partial curve].

For `O=C(CCCc1ccccc1)NC12CC3CC(CC(C3)C1)C2`, the AC50 under setting [1] is 0.651 µM [rising, full curve, poor fit].

`Cc1ccc(C(CC(=O)N2CCCC2)c2ccccc2)c(O)c1` (stereo not given): the cell number change is -1.42%.

In the case of `COc1cc2c(cc1OC)CN(c1ccc(C(N)=O)cc1[N+](=O)[O-])CC2`, the cell number change is -1.9%. For the same compound, the AC50 under setting [2] is 29.1 µM [falling, partial curve, poor fit].

Take `COc1cc(CNCc2ccc3c(c2)OCO3)c([N+](=O)[O-])cc1OC`: the cell number change is -18%. Also, under setting [2], the concentration at half-maximal activity (AC50) was 0.651 µM [falling, single point].

Consider `Cc1cccc(OCC(=O)N2CCc3ccccc3C2)c1`, for which the cell number change is -4.56%.

As for `CC(C)c1nc2c(s1)CCc1onc(-c3cccc([N+](=O)[O-])c3)c1-2`, the cell number change stood at 15.2%.

As for `O=C(CN1CCNCC1)NCCSc1ccc(Cl)cc1`, the cell number change was -17.6%. Under setting [1], the AC50 was 0.00461 µM [rising, full curve, poor fit].

Take `Cn1c(SCC(=O)N2CCCC2)nc2ccccc2c1=O`: the cell number change was -0.0707%.

For `CC(=O)c1ccc(Nc2cc(C)nc3nc(C)nn23)cc1`, the cell number change amounted to 16.1%. In addition, the AC50 under setting [2] was 8.2 µM [rising, partial curve, poor fit].

As to `Cc1ccc2nc(Nc3ccc(C)c(Cl)c3)c3nncn3c2c1`, the cell number change worked out at 1.39%. In addition, the AC50 under setting [2] was 4.11 µM [rising, partial curve].

Consider `O=C(CNc1cc(S(=O)(=O)N2CCCC2)ccc1OCC(F)(F)F)Nc1cccc(C(F)(F)F)c1`, for which the cell number change is -8.53%.

For `Cc1c(N2C(=O)/C(=C\c3cccc4ccccc34)SC2=S)c(=O)n(-c2ccccc2)n1C`, the cell number change amounted to 2.67%. Besides, the AC50 under setting [2] is 6.51 µM [falling, single point].

In the case of `O=C(COC(=O)C1CCC1)NCc1ccccc1Cl`, the cell number change turned out to be 2.54%. Moreover, the AC50 under setting [2] is 6.51 µM [falling, single point].

Take `CCOc1cc(NC(=O)CCl)c(OCC)cc1NC(=O)CCl`: the cell number change is -20.8%. The AC50 under setting [2] was 29.1 µM [falling, single point].

Consider `Cc1csc(C(C)NC(=O)c2ccc(OC3CCN(CCc4ccccc4)CC3)cc2)n1` (stereo not given), for which the cell number change was found to be 27.1%.

Consider `COCCCNc1nc2ccccc2nc1NS(=O)(=O)c1ccc(C)cc1`, for which the cell number change came out at 34.2%. Further, the concentration at half-maximal activity (AC50) under setting [1] is 0.00461 µM [rising, full curve, poor fit].

With `CCOC(=O)C(=CNc1nc(-c2ccc3ccccc3c2)cs1)C(=O)OCC`, the cell number change was found to be 23.9%. Under setting [2], the AC50 was 4.61 µM [rising, partial curve, poor fit].

For `O=C(c1ccc(-c2ccccc2Cl)o1)N1CCN(S(=O)(=O)c2cccs2)CC1`, the AC50 under setting [1] is 0.00411 µM [falling, full curve, poor fit].

For `Cc1cccc(CCNC(=O)c2cc(S(=O)(=O)N3CCCCC3)c[nH]2)c1`, the cell number change was -12.9%.

Turning to `CCOc1ccc(C(=O)Nc2c3c(nn2-c2ccc(F)cc2)CS(=O)C3)cc1` (stereo not given), under setting [1], the AC50 was 1.3 µM [rising, partial curve].

Consider `Cc1ccc2[nH]c(=O)c(C3C(C#N)=C(N)Oc4c3ccc3cccnc43)cc2c1` (stereo not given), for which the cell number change was -43.6%. The AC50 under setting [1] was 29.1 µM [falling, single point].

Consider `Oc1ccc(/C=N/Nc2nc(-c3ccc(Cl)cc3)cc(C(F)(F)F)n2)cc1`, for which the cell number change was -50.7%. In addition, the AC50 under setting [1] is 10.3 µM [falling, partial curve].

A word on the AC50: it is the midpoint of the concentration-response curve, whichever way the signal moves.
